Measured values taken from patent publication US12637687B2, “Nucleic acid molecules, polypeptides having epoxy group-removing catalytic activity and use thereof” (SHANDONG AGRICULTURAL UNIVERSITY, priority 2020, dated 2026).

Experiment: In vitro enzymatic reaction system of ThFhb7 polypeptide (DON + GSH, LC-HRMS)
Format: biochemical
Experimental: The optimal conditions for the in vitro enzymatic reaction system of ThFhb7 polypeptide were established by gradient experiments of three different factors affecting the enzymatic reaction: • (1) the gradient of reaction enzyme amounts: 1 μg, 5 μg, 10 μg, 25 μg, and 50 μg; • (2) the pH gradient set with various buffers: ranging from 3.0 to 10.0, disodium hydrogen phosphate-citric acid buffer (pH=3.0, 4.0, 5.0), disodium hydrogen phosphate-potassium dihydrogen phosphate buffer (pH=6.0, 7.0), and Tris-phosphate buffer (pH=8.0, 9.0, 10.0); and • (3) the gradient of reaction temperatures: 4° C., 12° C., 15° C., 20° C., 25° C., 30° C., 37° C., 45° C., and 50° C.
The reaction was performed in a phosphate buffer (PBS) (pH=7.0), at 25° C. for 12 h, and samples were taken at 0 h, 0.5 h, 1 h, 3 h, and 6 h respectively for LC-HRMS analysis; through the area results of first-level scanning of LC-HRMS, the changes in the amounts of the two substances, DON as the reaction substrate and the GSH adduct as the reaction product, were obtained with proceeding of reaction, so as to obtain the optimal enzyme amount for the reaction, as shown in FIGS. 14A and 14B. […]

B1: ThFhb7: de-epoxidase from Thinopyrum ponticum; polypeptide having epoxy group-removing catalytic activity, amino acid sequence SEQ ID NO: 36, gene SEQ ID NO: 1 (protein, listed as Elytrigia ponticum)
chain: MATSASTSTPIIPTAIAGAPPVAGTCCAVAPTLSALALAPLAVPTTTTTVLMPAISSVAASLAVPACALPAAGSAPATLPIIHAPATASLVGASPAIAATLGATTPASGAGALPPPGLLATAVGAAMPGLLIPLSGIAASPGLAATAAPASAVAAAPTAHVGLMVHGLPLAPATAAVTLAGPVAAAGLSSTAALGMVGGAAALMMGSLAAMLGALAALPALAASGPPLLGGAATTAAMIVGGTLAMMAATLPVSGTGGAAACHGAIPGGLHAALALTAGVL
optimal test enzyme amount (PBS pH=7.0, 25° C., DON-GSH produced stable above this amount): 25 µg | pH of the buffer at which the amount of product DON-GSH reached the highest value (pH gradient 3.0 to 10.0): 6.0
